Assay results published in paper PMC7968458.
Where two headings read alike, the source gives them in different places. Results are given in words; binding and its absence hold for the method and conditions named. In cells and extracts the contact can be indirect. These calls come from enrichment with a bait or labelling near it, and not all partners need be listed. Each block holds one molecule with its values, some of them ahead of it.

Chains of the proteins cited; added tags and fusions are not shown.
UniProt Q61025: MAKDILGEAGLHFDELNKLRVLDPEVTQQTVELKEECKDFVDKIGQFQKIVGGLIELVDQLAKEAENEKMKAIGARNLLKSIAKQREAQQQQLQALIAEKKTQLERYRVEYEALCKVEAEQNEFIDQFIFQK
UniProt Q9WVA4: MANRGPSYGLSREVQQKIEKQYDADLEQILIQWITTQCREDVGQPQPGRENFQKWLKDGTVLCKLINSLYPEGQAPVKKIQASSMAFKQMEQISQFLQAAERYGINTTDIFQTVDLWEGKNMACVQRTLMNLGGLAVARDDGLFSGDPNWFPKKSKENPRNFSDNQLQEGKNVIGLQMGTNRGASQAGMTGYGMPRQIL

Tests used:
IFT20-BirA*-Myc (mouse) [1] = biological target: IFT20-BirA*-Myc (mouse) (UniProt Q61025); assay: proximity labelling; BioID: 4T1 cells expressing IFT20-BirA*-Myc, 50 uM biotin for 36 h; RIPA lysis, streptavidin Dynabeads, mass spectrometry; controls parental 4T1 cells and IFT20-BirA*-Myc with DMSO
IFT20-BirA*-Myc (mouse) [2] = biological target: IFT20-BirA*-Myc (mouse) (UniProt Q61025); assay: as above; remark: listed apart in the source

- binding (IFT20-BirA*-Myc (mouse) [1]): binds
Molecule: Tagln2 (from UniProt Q9WVA4 1-199)

- binding (IFT20-BirA*-Myc (mouse) [2]): binds
B1: Ctnnal1 (protein, UniProt O88327 1-731)
chain: MAASPVPGGGGAGAVHSSNAAGFTFDSGLEIRTRSVEQTLLPLVSQITTLINHKDNTKKSDKTLQAIQRVGQAVNLAVGRFVKVGEAIANENWDLKEEINIACIEAKQAGETIASLTDVTKRSHLESDGQVTILTDKTGVVQAARLLLSSVTKVLLLADRVVIKQIVTSRNKILATMERLEKVNSFQEFVQIFSQFGNEMVEFAHLTGDRQNDLKDEKKKARMAVARAVLEKGTMMLLTASKTCLRHPSCESAHTNKEGVFDRMRVALEKVTEIVTDCRLSGETDSSSVSIFTGIKELKVNIEALRENVCFESKENLSAALEAVLEHVEDFTDSAYTSHEHRERILELSSQARTELQQLLSVWMQTQSRKTKSAAEELELTVLKISHSLDELRRELHCTAMQLAADLLKFHADHVVLKALKVTGVEGNLEALAEYACKLSEQKEQLVETCRLLRHISGTEPLEITCIHAEETFQVTGQQIISAAETLTLHPSSKIAKENLDVFCEAWESQMSDMATLLREISDVFEGRRGERCDHLSLPKPTKNSANLKSLKPDKPDSEEQAKIAKLGLKLGLLSSDADCEIEKWEDEENEIVRHGRNMSRMAYSLYLFTRGEGPLKTSQDLIHFLEVFAAEGLKLTSSVQSFSKQLKDDDKLMLLLEINKLIPLCHQLQTITKTSLQSKVFLKVDKCITKIRSMMTLVVQLLSLCYKLLKKMENNRWGSATNKDTMDGQN
